Measurements: paper doi:10.1101/2024.04.12.589178
No constants are given. Whether binding was seen depends on the method and setting. Binding seen in cells or lysates may run through a third protein. A yes stands for co-enrichment or nearness to the bait. Other partners may have been found.

By UniProt entry, the sequences of proteins in these tests, tags left out. Residues count along the entry.
UniProt P30405, residues 30-207: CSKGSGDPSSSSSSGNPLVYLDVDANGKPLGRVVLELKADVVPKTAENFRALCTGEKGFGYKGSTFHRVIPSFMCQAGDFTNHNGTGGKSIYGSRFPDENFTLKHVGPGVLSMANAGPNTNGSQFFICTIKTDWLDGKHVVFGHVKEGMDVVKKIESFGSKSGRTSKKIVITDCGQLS

Target: T1, MPV17-BirA* (human) (UniProt P39210)
T1 sequence: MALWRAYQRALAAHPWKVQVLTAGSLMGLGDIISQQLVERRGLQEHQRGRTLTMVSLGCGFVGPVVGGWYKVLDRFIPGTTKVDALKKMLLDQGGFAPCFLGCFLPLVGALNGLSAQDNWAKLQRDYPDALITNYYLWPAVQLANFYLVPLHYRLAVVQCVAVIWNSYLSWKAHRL
Assay: proximity labelling

Substance: CyclophilinD (from UniProt P30405 30-207)
- binding: binds
